Assay results from patent US10548911B2, “Small molecule anti-scarring agents” (UNIVERSITY OF ROCHESTER, priority 2014, dated 2020).
Some entries share one result that the patent states for a list of compounds.

Tested on: human fibroblasts
Assay: BrdU incorporation assay (cell proliferation)
Assay type: cell-based
Conditions: 250 nM plus TGFβ
Method: Human fibroblasts were seeded on a 96-well plate at a density of 1×10^5 cells/well. Cells were treated in triplicate. Cell proliferation was determined using the bromodeoxyuridine (BrdU) assay following manufacturer's instructions. Briefly, cells were treated with a BrdU label at a 1:2000 dilution for 24 h after the initial 72 h treatment with TGFβ+/−drugs. BrdU incorporation was measured using the BrdU Cell Proliferation Assay kit (Calbiochem, San Diego, Calif.) at 450-540 nm using a Varioskan microplate reader.
While salinomycin and other polyether ionophores blocked myofibroblast formation, it was next assessed whether these effects were a result of toxicity and/or due to a block of cell proliferation. Though the treatment doses are relatively low (efficacy in 100-250 nM range), a loss of cell viability could still be a possibility. To test this, human fibroblasts were treated with vehicle (DMSO), 50-250 nM salinomycin alone, TGFβ or TGFβ plus 250 nM salinomycin. As a positive control, fibroblasts were treated with the cytotoxic drug, puromycin. Treated cells were cultured in the presence of alamar blue reagent, which measures mitochondrial oxidation-reduction (REDOX) potential and serves as a quantitative viability sensor. After 72 hours of culture, alamar blue fluorescence was measured to assay cell viability (FIG. 4A). […]

In the case of CC[C@@H](C(=O)O)[C@@H]1O[C@@H]([C@@H](C)[C@H](O)[C@H](C)C(=O)[C@H](CC)[C@H]2O[C@]3(C=C[C@@H](O)[C@]4(CC[C@@](C)([C@H]5CC[C@](O)(CC)[C@H](C)O5)O4)O3)[C@H](C)C[C@@H]2C)[C@@H](C)C[C@@H]1C [narasin], the “block of TGFβ induced proliferation” value is reported as 4 to 5 fold.
